Earlier results as cited in patent US11884941B2, “Non-canonical lipoproteins with programmable assembly and architecture and method of making non-canonical lipoproteins” (SYRACUSE UNIVERSITY, priority 2020, dated 2024).
Some results were stated once for a whole list of compounds, not compound by compound. At least one structure is not confirmed: it was looked up by name or label, or the drawing left a doubt.

Biological target: T1, yeast NMT (Saccharomyces cerevisiae, UniProt P14743)
T1 sequence (P14743 1-455): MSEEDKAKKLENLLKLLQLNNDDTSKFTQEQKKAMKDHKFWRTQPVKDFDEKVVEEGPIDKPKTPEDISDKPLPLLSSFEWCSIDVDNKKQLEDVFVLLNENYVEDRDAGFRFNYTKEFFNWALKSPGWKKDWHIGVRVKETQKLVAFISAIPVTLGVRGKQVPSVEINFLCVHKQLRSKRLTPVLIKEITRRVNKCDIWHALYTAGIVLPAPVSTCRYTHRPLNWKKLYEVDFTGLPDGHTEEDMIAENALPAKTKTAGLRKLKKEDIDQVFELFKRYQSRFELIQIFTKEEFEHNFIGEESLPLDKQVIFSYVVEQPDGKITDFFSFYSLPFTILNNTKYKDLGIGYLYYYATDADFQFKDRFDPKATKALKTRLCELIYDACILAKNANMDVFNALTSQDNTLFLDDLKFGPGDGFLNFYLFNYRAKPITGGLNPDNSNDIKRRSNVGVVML
Settings: read-out: Km of acyl-CoA for NMT

SMILES: CC(C)(COP(=O)(O)OP(=O)(O)OCC1OC(n2cnc3c(N)ncnc32)C(O)C1OP(=O)(O)O)C(O)C(=O)NCCC(=O)NCCSC(=O)CCCCCCCCCCCN=[N+]=[N-] (stereo not shown) [ADA-CoA]
- Km: 4 to 6 µM
